Here are results for 1 molecule from PMC11026163, “Structural basis for excitatory neuropeptide signaling” (Nature Structural & Molecular Biology, 2024).

Results are given in words; binding and its absence hold for the method and conditions named. A result given as binding can be weak or reduced; the word gives no strength. No end group written: not given here.

The assay concerns the target FMRFamide-gated sodium channel 1 (FaNaC1) from Malacoceros fuliginosus (Malacoceros fuliginosus). Put plainly: cryo-EM structure; FaNaC1 in POPC:POPG (3:1) lipid nanodiscs, 20 mM HEPES pH 7.6, 150 mM NaCl; alone, or with FMRFa 30 µM or ASSFVRIa 100 µM added directly before freezing; C3 symmetry imposed; both purified.

Turning to ASSFVRI (C-terminal amide) [ASSFVRIamide], the binding result is “binds”.
